{"source": "paper PMC8447601", "key": {"[1]": {"biological_target": "T1, Tudor staphylococcal nuclease 2 with C-terminal TAPa tag (TSN2‐TAPa) (Arabidopsis thaliana) (UniProt Q9FLT0)", "T1 sequence": "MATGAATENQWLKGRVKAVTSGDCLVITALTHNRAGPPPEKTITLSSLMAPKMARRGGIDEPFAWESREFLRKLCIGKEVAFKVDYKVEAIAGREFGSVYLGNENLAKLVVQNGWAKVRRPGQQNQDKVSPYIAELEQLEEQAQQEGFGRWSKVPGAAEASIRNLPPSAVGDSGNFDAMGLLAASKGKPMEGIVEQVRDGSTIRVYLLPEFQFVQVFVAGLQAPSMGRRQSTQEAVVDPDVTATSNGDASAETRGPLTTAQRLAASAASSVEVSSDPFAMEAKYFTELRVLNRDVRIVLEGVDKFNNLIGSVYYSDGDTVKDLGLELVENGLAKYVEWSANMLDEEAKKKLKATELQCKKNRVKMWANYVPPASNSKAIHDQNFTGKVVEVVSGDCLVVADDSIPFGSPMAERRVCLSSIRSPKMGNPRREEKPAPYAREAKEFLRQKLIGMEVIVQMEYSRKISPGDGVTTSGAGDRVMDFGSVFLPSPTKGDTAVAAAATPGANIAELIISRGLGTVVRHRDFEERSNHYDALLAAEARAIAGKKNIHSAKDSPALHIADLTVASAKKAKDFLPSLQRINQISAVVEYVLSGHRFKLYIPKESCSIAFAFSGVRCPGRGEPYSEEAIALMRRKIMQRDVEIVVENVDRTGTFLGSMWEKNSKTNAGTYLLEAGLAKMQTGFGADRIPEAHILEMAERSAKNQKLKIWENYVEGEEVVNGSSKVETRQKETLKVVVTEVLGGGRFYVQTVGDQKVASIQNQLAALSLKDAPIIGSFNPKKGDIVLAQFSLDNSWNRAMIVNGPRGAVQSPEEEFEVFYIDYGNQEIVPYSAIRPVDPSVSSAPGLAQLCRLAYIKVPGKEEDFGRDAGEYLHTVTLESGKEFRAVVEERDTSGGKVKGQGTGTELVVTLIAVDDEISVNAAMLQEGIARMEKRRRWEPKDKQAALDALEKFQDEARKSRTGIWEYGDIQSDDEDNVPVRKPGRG", "assay": "affinity purification with mass spectrometry; TAPa with TSN2-TAPa as in a1, plants salt-stressed (200 mM NaCl for 5 h): TSN2_NaCl pool"}, "[2]": {"biological_target": "T1, Tudor staphylococcal nuclease 2 with C-terminal TAPa tag (TSN2‐TAPa) (Arabidopsis thaliana)", "assay": "affinity purification with mass spectrometry; TAPa: TSN2-TAPa or TSN1-TAPa as bait from leaves of 18-day-old Arabidopsis; IgG beads, 3C protease elution, Ni-NTA; 50 mM Tris-HCl pH 7.5, 150 mM NaCl, 10% glycerol, 0.1% Nonidet P-40, 4°C; label-free LC-MS/MS (iBAQ), enrichment against GFP-TAPa; plants at 23°C (NS), 39°C for 60 min (HS) or 200 mM NaCl for 5 h"}, "[3]": {"biological_target": "T2, Tudor staphylococcal nuclease 1 with C-terminal TAPa tag (TSN1‐TAPa) (Arabidopsis thaliana) (UniProt Q8VZG7)", "T2 sequence": "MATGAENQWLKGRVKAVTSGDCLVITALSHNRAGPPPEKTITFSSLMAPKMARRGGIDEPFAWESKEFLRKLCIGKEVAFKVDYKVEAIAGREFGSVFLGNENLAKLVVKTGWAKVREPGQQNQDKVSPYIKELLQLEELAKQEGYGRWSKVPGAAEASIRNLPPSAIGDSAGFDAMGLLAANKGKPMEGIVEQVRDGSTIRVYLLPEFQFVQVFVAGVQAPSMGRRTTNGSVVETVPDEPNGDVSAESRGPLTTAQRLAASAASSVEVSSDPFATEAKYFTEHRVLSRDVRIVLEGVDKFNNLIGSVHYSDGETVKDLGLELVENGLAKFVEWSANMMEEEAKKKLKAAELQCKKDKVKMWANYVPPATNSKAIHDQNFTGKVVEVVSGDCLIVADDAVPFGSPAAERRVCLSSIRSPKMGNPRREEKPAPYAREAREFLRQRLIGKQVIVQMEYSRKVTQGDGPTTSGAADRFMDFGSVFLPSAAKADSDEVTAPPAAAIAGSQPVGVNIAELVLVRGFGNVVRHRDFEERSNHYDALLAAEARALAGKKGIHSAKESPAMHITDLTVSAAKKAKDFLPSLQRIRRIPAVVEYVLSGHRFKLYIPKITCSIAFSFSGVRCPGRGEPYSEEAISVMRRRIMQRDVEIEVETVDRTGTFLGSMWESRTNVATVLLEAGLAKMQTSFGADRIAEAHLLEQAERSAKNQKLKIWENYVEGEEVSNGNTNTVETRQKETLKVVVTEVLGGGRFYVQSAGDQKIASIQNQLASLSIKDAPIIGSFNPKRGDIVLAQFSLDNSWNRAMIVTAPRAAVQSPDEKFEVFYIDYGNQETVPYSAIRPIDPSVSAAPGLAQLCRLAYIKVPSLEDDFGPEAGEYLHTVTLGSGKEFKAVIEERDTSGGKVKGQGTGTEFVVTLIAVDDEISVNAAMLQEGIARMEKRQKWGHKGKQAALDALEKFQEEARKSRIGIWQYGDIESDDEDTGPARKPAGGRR", "assay": "affinity purification with mass spectrometry; TAPa: TSN2-TAPa or TSN1-TAPa as bait from leaves of 18-day-old Arabidopsis; IgG beads, 3C protease elution, Ni-NTA; 50 mM Tris-HCl pH 7.5, 150 mM NaCl, 10% glycerol, 0.1% Nonidet P-40, 4°C; label-free LC-MS/MS (iBAQ), enrichment against GFP-TAPa; plants at 23°C (NS), 39°C for 60 min (HS) or 200 mM NaCl for 5 h"}, "[4]": {"biological_target": "GFP‐RBP47 (Arabidopsis thaliana)", "assay": "affinity purification with mass spectrometry; GFP-RBP47 immunoprecipitated with α-GFP magnetic beads from leaves of 18-day-old Arabidopsis, NS (23°C) or HS (39°C for 60 min); 50 mM Tris-HCl pH 7.5, 150 mM NaCl, 0.1% Nonidet P-40, 4°C; on-bead digestion, label-free LC-MS/MS, free GFP plants as control"}}, "note": "Results are given in words; binding and its absence hold for the method and conditions named. In cells and extracts the contact can be indirect. A yes stands for co-enrichment or nearness to the bait. Other partners may have been found. For part of these data: No binding means not detected with the bait. Where a sequence is shown, tags or fusion partners need not be part of it.", "data": [{"molecule": "Oligouridylate Binding Protein 1 (UBP1)", "values": [{"measurement": "binding", "setting": "[1]", "result": "no binding (only salt stress (200 mM NaCl for 5 h))"}, {"measurement": "binding", "setting": "[2]", "result": "binds"}]}, {"molecule": "SnRK1α2 (α‐catalytic subunit of SNF1‐related protein kinase 1) (protein, UniProt P92958 1-512) MDHSSNRFGNNGVESILPNYKLGKTLGIGSFGKVKIAEHVVTGHKVAIKILNRRKIKNMEMEEKVRREIKILRLFMHPHIIRQYEVIETTSDIYVVMEYVKSGELFDYIVEKGRLQEDEARNFFQQIISGVEYCHRNMVVHRDLKPENLLLDSRCNIKIADFGLSNVMRDGHFLKTSCGSPNYAAPEVISGKLYAGPEVDVWSCGVILYALLCGTLPFDDENIPNLFKKIKGGIYTLPSHLSSEARDLIPRMLIVDPVKRITIPEIRQHRWFQTHLPRYLAVSPPDTVEQAKKINEEIVQEVVNMGFDRNQVLESLRNRTQNDATVTYYLLLDNRFRVPSGYLESEFQETTDSGSNPMRTPEAGASPVGHWIPAHVDHYGLGARSQVPVDRKWALGLQSHAHPREIMNEVLKALQELNVCWKKIGHYNMKCRWVPGLADGQNTMVNNQLHFRDESSIIEDDCAMTSPTVIKFELQLYKAREEKYLLDIQRVNGPQFLFLDLCAAFLTELRVI", "values": [{"measurement": "binding", "setting": "[1]", "result": "no binding (only salt stress (200 mM NaCl for 5 h))"}, {"measurement": "binding", "setting": "[2]", "result": "binds"}]}, {"molecule": "DEAD‐box ATP‐dependent RNA helicase 12 (RH12) (protein, UniProt Q9M2E0 1-498) MNTNRGRYPPGVGTGRGAPPNPDYHQSYRQQQPPQDQQYVQRGYSQNPQQMQLQQQHQQQQQQQQWSRRPQLPGNASNANEVVQQTTQPEASSDANGQDWKATLRLPPPDTRYQTADVTATKGNEFEDYFLKRDLLKGIYEKGFEKPSPIQEESIPIALTGSDILARAKNGTGKTGAFCIPVLEKIDPNNNVIQAMILVPTRELALQTSQVCKELSKYLNIQVMVTTGGTSLRDDIMRLHQPVHLLVGTPGRILDLTKKGVCVLKDCAMLVMDEADKLLSAEFQPSLEELIQFLPQNRQFLMFSATFPVTVKAFKDRHLRKPYVINLMDQLTLMGVTQYYAFVEERQKVHCLNTLFSKLQINQSIIFCNSVNRVELLAKKITELGYSCFYIHAKMVQDHRNRVFHEFRNGACRNLVCTDLFTRGIDIQAVNVVINFDFPRTSESYLHRVGRSGRFGHLGLAVNLVTYEDRFKMYQTEQELGTEIKPIPSNIDQAIYCQ", "values": [{"measurement": "binding", "setting": "[3]", "result": "binds"}, {"measurement": "binding", "setting": "[2]", "result": "binds"}]}, {"molecule": "PAB4 (protein, UniProt O22173 1-662) MAQVQAPSSHSPPPPAVVNDGAATASATPGIGVGGGGDGVTHGALCSLYVGDLDFNVTDSQLYDYFTEVCQVVSVRVCRDAATNTSLGYGYVNYSNTDDAEKAMQKLNYSYLNGKMIRITYSSRDSSARRSGVGNLFVKNLDKSVDNKTLHEAFSGCGTIVSCKVATDHMGQSRGYGFVQFDTEDSAKNAIEKLNGKVLNDKQIFVGPFLRKEERESAADKMKFTNVYVKNLSEATTDDELKTTFGQYGSISSAVVMRDGDGKSRCFGFVNFENPEDAARAVEALNGKKFDDKEWYVGKAQKKSERELELSRRYEQGSSDGGNKFDGLNLYVKNLDDTVTDEKLRELFAEFGTITSCKVMRDPSGTSKGSGFVAFSAASEASRVLNEMNGKMVGGKPLYVALAQRKEERRAKLQAQFSQMRPAFIPGVGPRMPIFTGGAPGLGQQIFYGQGPPPIIPHQPGFGYQPQLVPGMRPAFFGGPMMQPGQQGPRPGGRRSGDGPMRHQHQQPMPYMQPQMMPRGRGYRYPSGGRNMPDGPMPGGMVPVAYDMNVMPYSQPMSAGQLATSLANATPAQQRTLLGESLYPLVDQIESEHAAKVTGMLLEMDQTEVLHLLESPEALNAKVSEALDVLRNVNQPSSQGSEGNKSGSPSDLLASLSINDHL", "values": [{"measurement": "binding", "setting": "[3]", "result": "binds"}, {"measurement": "binding", "setting": "[2]", "result": "binds"}]}, {"molecule": "TSN2 (endogenous, found in the GFP‐RBP47 immunoprecipitates) (protein, UniProt Q9FLT0 1-985) MATGAATENQWLKGRVKAVTSGDCLVITALTHNRAGPPPEKTITLSSLMAPKMARRGGIDEPFAWESREFLRKLCIGKEVAFKVDYKVEAIAGREFGSVYLGNENLAKLVVQNGWAKVRRPGQQNQDKVSPYIAELEQLEEQAQQEGFGRWSKVPGAAEASIRNLPPSAVGDSGNFDAMGLLAASKGKPMEGIVEQVRDGSTIRVYLLPEFQFVQVFVAGLQAPSMGRRQSTQEAVVDPDVTATSNGDASAETRGPLTTAQRLAASAASSVEVSSDPFAMEAKYFTELRVLNRDVRIVLEGVDKFNNLIGSVYYSDGDTVKDLGLELVENGLAKYVEWSANMLDEEAKKKLKATELQCKKNRVKMWANYVPPASNSKAIHDQNFTGKVVEVVSGDCLVVADDSIPFGSPMAERRVCLSSIRSPKMGNPRREEKPAPYAREAKEFLRQKLIGMEVIVQMEYSRKISPGDGVTTSGAGDRVMDFGSVFLPSPTKGDTAVAAAATPGANIAELIISRGLGTVVRHRDFEERSNHYDALLAAEARAIAGKKNIHSAKDSPALHIADLTVASAKKAKDFLPSLQRINQISAVVEYVLSGHRFKLYIPKESCSIAFAFSGVRCPGRGEPYSEEAIALMRRKIMQRDVEIVVENVDRTGTFLGSMWEKNSKTNAGTYLLEAGLAKMQTGFGADRIPEAHILEMAERSAKNQKLKIWENYVEGEEVVNGSSKVETRQKETLKVVVTEVLGGGRFYVQTVGDQKVASIQNQLAALSLKDAPIIGSFNPKKGDIVLAQFSLDNSWNRAMIVNGPRGAVQSPEEEFEVFYIDYGNQEIVPYSAIRPVDPSVSSAPGLAQLCRLAYIKVPGKEEDFGRDAGEYLHTVTLESGKEFRAVVEERDTSGGKVKGQGTGTELVVTLIAVDDEISVNAAMLQEGIARMEKRRRWEPKDKQAALDALEKFQDEARKSRTGIWEYGDIQSDDEDNVPVRKPGRG", "values": [{"measurement": "binding", "setting": "[4]", "result": "binds"}]}]}
